Results as given in patent publication US10457700B2, “Platinum prodrugs and methods of making and using thereof” (UNIVERSITY OF GEORGIA RESEARCH FOUNDATION, INC., priority 2015, dated 2019).

System: A2780 cells
Test: MTT cytotoxicity assay in A2780 cells
Format: cell-based
Conditions: 72 h
Procedure: Human prostate cancer cell line PC3 and DU145 were procured from the American type culture collection (ATCC). Ovarian cancer A2780 cells were obtained from Prof, Robert Brown, Imperial College London. […] Cells were passed every 3 to 4 days and restarted from frozen stocks upon reaching 20 passages.
PC3, A2780, or A2780/CP70 cells (2000 cells/well/100 μL) were seeded on a 96-well plate in 100 μL of desired medium and incubated for 24 h. After 24 h, media was removed and fresh media was added. The cells were treated with different constructs at varying concentrations and incubated for 72 h at 37° C. in 5% CO2. The cells were then treated with 20 μL of MTT (5 mg/mL in PBS) for 5 h. The medium was removed, the cells were lysed with 100 μL of DMSO, and the absorbance of the purple formazan was recorded at 550 nm using a Bio-Tek Synergy HT microplate reader. The background absorbance for each well was measured at 800 nm. Each well was performed in triplicate. […] Cells were grown for 7 days in high glucose medium prior to the MTT experiment. Cytotoxicity was expressed as mean percentage increase relative to the unexposed control±SD. Control values were set at 0% cytotoxicity or 100% cell viability.

N.N.[Cl][Pt][Cl] [Cisplatin, cis-diamminedichloridoplatinum(II)]
IC50: 560 ± 80 nM
